Data as given in PubChem BioAssay AID1159584 (Peter MacCallum Cancer Centre, 2016)

Screen: 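Genes that CDH1-null MCF10A cells selectively depend on to survive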 (primary screen)
System: human MCF10A breast epithelial cells, parental and CDH1-null
Knock-down reagent: siRNA against human genes
Measurement: 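ATP luminescence (CellTiter-Glo) viability per line relative to mean mock wells over all plates, and the ratio of CDH1-null to parental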
Scale: CDH1-null / parental viability ratio: higher = CDH1-null cells survive relatively better than parental; CDH1-null viability vs mock: higher = more viable CDH1-null cells; parental viability vs mock: higher = more viable parental cells
The whole screen tested about 18,000 reagents; below is a random part of them. Not given: the amount of reagent, the time to read-out.

gene,CDH1-null / parental viability ratio,CDH1-null viability vs mock (fraction of mock),parental viability vs mock (fraction of mock)
GLI1,1.43,0.86,0.6
GRM4,0.83,0.77,0.93
MRPL46,1.11,0.78,0.7
RNASE8,0.97,0.99,1.02
PITPNM2,1.04,0.86,0.83
FGFR1,1.15,0.94,0.82
CCZ1B,0.98,0.96,0.98
PKHD1L1,0.91,0.6,0.66
CLCA4,1.59,1.29,0.81
PLAAT2,0.74,0.45,0.61
GARIN1B,1.08,0.98,0.91
KLHDC4,0.92,1.08,1.17
MCCC1,0.99,0.9,0.91
ERICH3,1.19,0.81,0.68
FGL2,0.99,1.07,1.08
SMIM15,1.21,1.05,0.87
HMG20B,0.91,0.8,0.88
ZFP28,1.15,0.85,0.74
LYAR,1.8,0.99,0.55
SEMA5B,0.77,0.68,0.88
ZNF638,0.86,0.71,0.83
CENPT,1,0.88,0.88
IFT172,0.84,0.62,0.74
NDST3,0.8,0.48,0.6
CREB3L1,0.82,0.4,0.49
TMCO4,1.33,1.12,0.84
SLC44A1,1.03,0.6,0.58
PSD3,1.06,0.69,0.65
HNRNPDL,1.02,0.92,0.9
CST4,0.95,0.76,0.8
TTN,0.83,0.78,0.94
GABRR2,1.22,1.12,0.92
MAVS,0.71,0.97,1.36
CHID1,0.96,0.49,0.51
DPEP3,1,0.54,0.54
FBXW4,0.86,0.48,0.56
TRIM74,0.93,0.84,0.9
CYBC1,1.19,0.68,0.57
GDF6,1.26,0.96,0.76
SMARCB1,1.04,0.58,0.56
FEM1A,1.21,1.04,0.86
STARD6,0.76,0.61,0.8
RMP24,0.92,0.6,0.65
RASGRP3,1.1,0.56,0.51
HYCC1,1.04,1.19,1.14
COL14A1,1.01,0.77,0.76

Limited to “CDH1-null viability vs mock (fraction of mock)” (4 entries from above):
NDST3: 0.48
CREB3L1: 0.4
TMCO4: 1.12
SLC44A1: 0.6
